Experimental data taken from ChEMBL document CHEMBL1667789, “Synthesis of 4H-chromene, coumarin, 12H-chromeno[2,3-d]pyrimidine derivatives and some of their antimicrobial and cytotoxicity activities” (2011).

Test system: Candida albicans
Assay: Antifungal activity against Candida albicans ATCC 10231 at 25 ug/ml by agar diffusion method
Assay type: functional
Procedure, shortened: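 Agar diffusion on Sabouraud's agar. Fungal strains came from the NODCAR Microbiology laboratory culture collection. Mycostatine was the reference standard.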

NYSTATIN
inhibition zone (IZ): 22 mm
